Values joined by “and” are separate entries in the source; they are usually repeats but may differ in a detail not shown here. Equal entries are not always repeated. Further values from the same series stand in other lists.
Test: CIA study: animal body weight
Conditions: for Animal body weight percent change (%): individual animals

Cn1cc(-c2ccccc2)c(-c2cn(C)c(=O)c3[nH]c(-c4cnn(C(F)(F)F)c4)cc23)cc1=O [Compound A, 6-methyl-4-(1-methyl-2-oxo-5-phenyl-1,2-dihydropyridin-4-yl)-2-(1-(trifluoromethyl)-1H-pyrazol-4-yl)-1,6-dihydro-7H-pyrrolo[2,3-c]pyridin-7-one]
Animal body weight (CIA + Compound A 1 mg/kg, Day 0, 1 mg/kg): 163 g and 165 g and 164 g and 162 g and 152 g and 169 g and 167 g
Animal body weight (CIA + Compound A 1 mg/kg, Day 1, 1 mg/kg): 167 g and 169 g and 158 g and 155 g and 170 g
Animal body weight (CIA + Compound A 1 mg/kg, Day 2, 1 mg/kg): 166 g and 169 g and 159 g and 167 g and 151 g and 165 g and 161 g
Animal body weight (CIA + Compound A 1 mg/kg, Day 3, 1 mg/kg): 165 g and 166 g and 159 g and 169 g and 156 g and 164 g and 167 g and 171 g
Animal body weight (CIA + Compound A 1 mg/kg, Day 4, 1 mg/kg): 168 g and 166 g and 159 g and 157 g and 170 g and 169 g
Animal body weight (CIA + Compound A 1 mg/kg, Day 5, 1 mg/kg): 170 g and 178 g and 165 g and 172 g and 156 g and 171 g
Animal body weight (CIA + Compound A 1 mg/kg, Day 6, 1 mg/kg): 170 g and 180 g and 157 g and 176 g and 161 g and 171 g and 175 g
Animal body weight (CIA + Compound A 1 mg/kg, Day 7, 1 mg/kg): 171 g and 182 g and 157 g and 162 g and 170 g and 174 g and 169 g
Animal body weight (CIA + Compound A 1 mg/kg, Day 8, 1 mg/kg): 166 g
Animal body weight (CIA + Compound A 1 mg/kg, Day 11, 1 mg/kg): 171 g
Animal body weight (CIA + Compound A 1 mg/kg, Day 13, 1 mg/kg): 166 g
Animal body weight (CIA + Compound A 1 mg/kg, Day 14, 1 mg/kg): 172 g
Animal body weight (CIA + Compound A 1 mg/kg, Day 15, 1 mg/kg): 175 g and 182 g and 154 g and 174 g and 158 g and 171 g and 168 g and 165 g
Animal body weight (CIA + Compound A 1 mg/kg, Day 16, 1 mg/kg): 176 g and 182 g and 157 g and 170 g and 156 g and 173 g and 164 g and 161 g
Animal body weight (CIA + Compound A 1 mg/kg, Day 17, 1 mg/kg): 177 g and 155 g and 174 g and 157 g and 173 g and 164 g and 160 g
Animal body weight (CIA + Compound A 1 mg/kg, Day 18, 1 mg/kg): 177 g and 174 g and 156 g and 173 g and 155 g and 175 g and 164 g and 162 g
Animal body weight (CIA + Compound A 1 mg/kg, Day 19, 1 mg/kg): 174 g and 170 g and 152 g and 171 g and 154 g and 176 g and 163 g and 164 g
Animal body weight (CIA + Compound A 1 mg/kg, Day 20, 1 mg/kg): 181 g and 173 g and 154 g and 170 g and 175 g and 162 g and 161 g
Animal body weight (CIA + Compound A 1 mg/kg, Day 21, 1 mg/kg): 179 g and 170 g and 153 g and 166 g and 174 g and 159 g and 163 g
Animal body weight (CIA + Compound A 3 mg/kg, Day 0, 3 mg/kg): 168 g and 171 g and 175 g and 167 g and 163 g and 157 g and 156 g
Animal body weight (CIA + Compound A 3 mg/kg, Day 1, 3 mg/kg): 163 g and 172 g and 175 g and 161 g and 166 g and 160 g and 158 g
Animal body weight (CIA + Compound A 3 mg/kg, Day 2, 3 mg/kg): 162 g and 171 g and 173 g and 166 g and 165 g and 159 g and 158 g
Animal body weight (CIA + Compound A 3 mg/kg, Day 3, 3 mg/kg): 160 g and 168 g and 170 g and 162 g and 164 g and 158 g
Animal body weight (CIA + Compound A 3 mg/kg, Day 4, 3 mg/kg): 167 g and 173 g and 175 g and 159 g and 165 g and 156 g
Animal body weight (CIA + Compound A 3 mg/kg, Day 5, 3 mg/kg): 166 g and 177 g and 178 g and 160 g and 163 g and 168 g and 167 g and 154 g
Animal body weight (CIA + Compound A 3 mg/kg, Day 6, 3 mg/kg): 163 g and 174 g and 176 g and 160 g and 164 g and 167 g and 168 g and 157 g
Animal body weight (CIA + Compound A 3 mg/kg, Day 7, 3 mg/kg): 157 g and 172 g and 173 g and 162 g and 163 g and 164 g and 166 g and 154 g
Animal body weight (CIA + Compound A 3 mg/kg, Day 15, 3 mg/kg): 161 g and 174 g and 170 g and 159 g and 166 g and 158 g
Animal body weight (CIA + Compound A 3 mg/kg, Day 16, 3 mg/kg): 158 g and 169 g and 170 g and 159 g and 165 g and 157 g
Animal body weight (CIA + Compound A 3 mg/kg, Day 17, 3 mg/kg): 154 g and 170 g and 168 g and 169 g and 158 g and 167 g and 162 g and 156 g
Animal body weight (CIA + Compound A 3 mg/kg, Day 18, 3 mg/kg): 155 g and 169 g and 167 g and 171 g and 157 g and 168 g and 166 g
Animal body weight (CIA + Compound A 3 mg/kg, Day 19, 3 mg/kg): 156 g and 169 g and 168 g and 165 g and 166 g and 152 g
Animal body weight (CIA + Compound A 3 mg/kg, Day 20, 3 mg/kg): 155 g and 165 g and 164 g and 162 g and 161 g and 170 g and 163 g and 153 g
Animal body weight (CIA + Compound A 3 mg/kg, Day 21, 3 mg/kg): 156 g and 166 g and 165 g and 163 g and 162 g and 155 g
Animal body weight (CIA + Compound A 10 mg/kg, Day 0, 10 mg/kg): 173 g and 164 g and 167 g and 159 g and 160 g and 156 g and 161 g and 158 g
Animal body weight (CIA + Compound A 10 mg/kg, Day 1, 10 mg/kg): 165 g and 168 g and 171 g and 163 g and 164 g and 154 g and 162 g
Animal body weight (CIA + Compound A 10 mg/kg, Day 2, 10 mg/kg): 170 g and 167 g and 159 g and 164 g and 154 g and 161 g and 162 g
Animal body weight (CIA + Compound A 10 mg/kg, Day 3, 10 mg/kg): 169 g and 167 g and 171 g and 158 g and 170 g and 154 g and 157 g and 160 g
Animal body weight (CIA + Compound A 10 mg/kg, Day 4, 10 mg/kg): 169 g and 163 g and 160 g and 168 g and 155 g and 161 g and 162 g
Animal body weight (CIA + Compound A 10 mg/kg, Day 5, 10 mg/kg): 167 g and 172 g and 161 g and 170 g and 160 g and 163 g and 166 g
Animal body weight (CIA + Compound A 10 mg/kg, Day 6, 10 mg/kg): 168 g and 167 g and 172 g and 165 g and 170 g and 155 g and 162 g
Animal body weight (CIA + Compound A 10 mg/kg, Day 7, 10 mg/kg): 164 g and 168 g and 173 g and 160 g and 153 g and 159 g
Animal body weight (CIA + Compound A 10 mg/kg, Day 8, 10 mg/kg): 164 g and 165 g and 160 g and 155 g and 158 g
Animal body weight (CIA + Compound A 10 mg/kg, Day 9, 10 mg/kg): 165 g and 168 g and 160 g and 152 g and 162 g and 166 g
Animal body weight (CIA + Compound A 10 mg/kg, Day 10, 10 mg/kg): 172 g and 161 g and 167 g and 153 g
Animal body weight (CIA + Compound A 10 mg/kg, Day 11, 10 mg/kg): 173 g and 170 g and 162 g and 167 g and 152 g and 160 g and 168 g
Animal body weight (CIA + Compound A 10 mg/kg, Day 12, 10 mg/kg): 173 g and 170 g and 160 g and 168 g and 153 g and 165 g
Animal body weight (CIA + Compound A 10 mg/kg, Day 13, 10 mg/kg): 170 g and 172 g and 157 g and 162 g and 156 g and 160 g and 166 g
Animal body weight (CIA + Compound A 10 mg/kg, Day 14, 10 mg/kg): 169 g and 170 g and 154 g and 161 g and 157 g and 163 g and 160 g
Animal body weight (CIA + Compound A 10 mg/kg, Day 15, 10 mg/kg): 162 g and 170 g and 169 g and 154 g and 160 g and 157 g and 167 g
Animal body weight (CIA + Compound A 10 mg/kg, Day 16, 10 mg/kg): 163 g and 165 g and 171 g and 153 g and 157 g and 154 g and 164 g
Animal body weight (CIA + Compound A 10 mg/kg, Day 17, 10 mg/kg): 164 g and 162 g and 166 g and 155 g and 168 g and 160 g and 154 g
Animal body weight (CIA + Compound A 10 mg/kg, Day 18, 10 mg/kg): 161 g and 160 g and 168 g and 155 g and 167 g and 162 g and 153 g
Animal body weight (CIA + Compound A 10 mg/kg, Day 19, 10 mg/kg): 163 g and 156 g and 170 g and 155 g and 165 g and 161 g and 153 g
Animal body weight (CIA + Compound A 10 mg/kg, Day 20, 10 mg/kg): 164 g and 158 g and 167 g and 157 g and 165 g and 163 g and 153 g
Animal body weight (CIA + Compound A 10 mg/kg, Day 21, 10 mg/kg): 162 g and 155 g and 167 g and 160 g and 164 g and 165 g and 151 g and 163 g
Animal body weight percent change (%) (Day 0, Group 5 (CIA + Compound A 1 mg/kg)): 0.00%
Animal body weight percent change (%) (Day 0, Group 6 (CIA + Compound A 3 mg/kg)): 0.00%
Animal body weight percent change (%) (Day 0, Group 7 (CIA + Compound A 10 mg/kg)): 0.00%
